The record followed here is the supplement of paper PMC8256030.

In one test the test system is HEK293T. Description: percent viability (nuclei count) relative to control; higher = more viable cells. The following applies: 10 µM; 24 h.
Test [1] has as its system SARS-CoV-2 -1 PRF reporter mCherry-FSE-GFP(-1). Kind of test: mCherry (red) intensity as percent of control; higher = higher upstream reporter expression. To be noted: 10 µM; 24 h; HEK293T.
For test [2] the test system is unchanged. Description: percent effect, decrease of GFP/mCherry ratio (-1 PRF reporter) relative to controls; higher = stronger frameshift inhibition. The following applies: 10 µM; 24 h; HEK293T.

The list shows a part of the results. Single values are uncertain here, since repeats match poorly.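 HEK293T cells were given each compound shortly before transfection with a reporter in which red mCherry is followed by the SARS-CoV-2 frameshift element and then GFP in the −1 frame, so GFP appears only after frameshifting.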

Consider `COc1ccc2c3c1O[C@H]1[C@@H](O)C=C[C@H]4[C@@H](C2)NCC[C@@]341` [norcodeine], for which the percent viability in the test on HEK293T was found to be 202%. The mCherry in test [1] was determined as 104%. Moreover, the percent effect in test [2] is -0.478%.

On to `CC(C)C[C@H]1C(=O)N2CCC[C@H]2[C@]2(O)O[C@](NC(=O)[C@@H]3C=C4c5cccc6[nH]c(Br)c(c56)C[C@H]4N(C)C3)(C(C)C)C(=O)N12`, for which the percent viability in the test on HEK293T turned out to be 276%. Moreover, the mCherry in test [1] stood at 93.4%. The percent effect in test [2] was -2.46%.

With `C[C@@H](N)Cc1ccccc1` [levamfetamine], in the test on HEK293T, the percent viability was found to be 231%. Further, in test [1], the mCherry was 88.6%. Besides, in test [2], the percent effect is -1.28%.

For the compound `CN(C)C(=O)OC1N=C(c2ccccc2)c2cc(Cl)ccc2N(C)C1=O` (stereo not drawn) [camazepam], the percent viability in the test on HEK293T stood at 170%. Moreover, in test [1], the mCherry stood at 115%. Moreover, the percent effect in test [2] amounted to 4.19%.

With `CCC1(C2=NCCN2)Cc2ccccc2O1` (stereo not drawn), the percent viability with HEK293T worked out at 324%. In test [1], the mCherry is 92.3%. In test [2], the percent effect is 0.0366%.

`Nc1ncnc2c1ncn2CCOCP(=O)(O)O` [adefovir]: the percent viability in the test with HEK293T stood at 177%. For the same compound, in test [1], the mCherry was 80%. Also, the percent effect in test [2] is -1.11%.

For the compound `O=C(O[C@H]1C[C@H]2CC[C@@H](C1)[N+]21CCCC1)C(O)(c1ccccc1)c1ccccc1` [trospium chloride], the percent viability with HEK293T came out at 121%. This compound also had a mCherry in test [1] of 125%. Moreover, the percent effect in test [2] was -0.915%.

On to `NC1CC1c1ccccc1` (stereo not drawn), for which the percent viability in the test on HEK293T amounted to 252%. In test [1], this compound gave a mCherry of 111%. Besides, the percent effect in test [2] was -5.05%.

On to `CO[C@@]12CC[C@@]3(C[C@@H]1[C@](C)(O)C(C)(C)C)[C@H]1Cc4ccc(O)c5c4[C@@]3(CCN1CC1CC1)[C@H]2O5` [Buprenorphine], for which the percent viability in the test on HEK293T is 41.6%. Further, the mCherry in test [1] is 86.8%. For the same compound, the percent effect in test [2] was -0.941%.

As to `CCOc1ccc(C(C)(C)COCc2cccc(Oc3ccccc3)c2)cc1` [etofenprox], in the test with HEK293T, the percent viability stood at 202%. The compound further gave a mCherry in test [1] of 99.9%. Moreover, the percent effect in test [2] is -2.95%.

With `Cn1cc(CCN2CCN(c3ccccc3Cl)CC2)cn1` [enpiprazole], the percent viability in the test with HEK293T is 273%. This compound came in with a mCherry in test [1] of 97%. Also, in test [2], the percent effect was -5.15%.
